The other results are listed elsewhere or left out.
target: OsWRKY34 (Oryza sativa, UniProt Q0JBA9 1-250); experiment: protein-binding microarray (RPBM); PBS, 2% BSA, 51.3 ng/ul salmon testes DNA, 50 uM zinc acetate, 200 nM TF, 25 C, 1 h; high values mean tight binding; details: protein: recombinant; tags: N-terminal polyhistidine and DsRed monomer fusion (pET32a); label: CyDye5-dUTP incorporated in the synthesized complementary strand; 3' TTTTT single-stranded linker to array surface; dsDNA, one strand shown
Outline: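 Ni–NTA purification followed expression in E. coli BL21-CodonPlus of transcription factors fused N-terminally to a polyhistidine tag and DsRed. At 200 nM in PBS with 2% BSA, salmon testes DNA and 50 µM zinc acetate, the protein was incubated for 1 h at 25 °C with a custom Agilent array that had been primer-extended with Cy5-dUTP and blocked with 2% BSA. After washing, the array was read on an Axon 4000B scanner. The binding signal is per-feature fluorescence intensity in arbitrary units.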

By UniProt entry, the sequences of proteins in these tests, tags left out.
UniProt Q0JBA9, entry or part of it: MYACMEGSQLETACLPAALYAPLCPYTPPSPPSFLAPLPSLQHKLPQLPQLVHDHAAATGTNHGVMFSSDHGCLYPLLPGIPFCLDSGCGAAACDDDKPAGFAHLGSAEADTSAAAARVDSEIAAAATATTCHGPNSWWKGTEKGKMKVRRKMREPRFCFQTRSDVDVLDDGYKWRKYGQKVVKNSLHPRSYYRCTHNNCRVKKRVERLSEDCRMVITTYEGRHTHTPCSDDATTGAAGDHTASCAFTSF

Sequence	binding signal
CCCGTCTCCTTGTGGGTTTTGGGAGGGGTGGTTCCTCGAGCGGAGTCACCTAGTGCAG	14200 fluorescence intensity (a.u.)
TTGAGTTGTGTTCTTGGTTGGGGAGGAGGAGGAGGAGATGCGGAGTCACCTAGTGCAG	15100 fluorescence intensity (a.u.)
GAAAAATCTGTCAGTTGCATGTTATGTGGTCAATTCGATCCGGAGTCACCTAGTGCAG	9080 fluorescence intensity (a.u.)
CGCGACTCTCTCCTCCTCGCCCTAGCCTCGTAACACGACGCGGAGTCACCTAGTGCAG	8640 fluorescence intensity (a.u.)
CATCCATCATCATTGAACGGCCCACCAGAAAGCCTAGGCCCGGAGTCACCTAGTGCAG	8400 fluorescence intensity (a.u.)
TGTATTTCTATATGGACTCTATTTTTTCTTTTTCTCCGATCGGAGTCACCTAGTGCAG	8770 fluorescence intensity (a.u.)
ATCGCTTACTGTGACAACATCTCCAGCGTCTACATGTCCACGGAGTCACCTAGTGCAG	8180 fluorescence intensity (a.u.)
TTTATTTTATTTGTGACTTGCTTTATTATCATAAGTACTTCGGAGTCACCTAGTGCAG	8180 fluorescence intensity (a.u.)
TTATTACTCCTTGTCACAGTTTATAGGGTGTTCTTTTACACGGAGTCACCTAGTGCAG	8200 fluorescence intensity (a.u.)
GACAGTTTTACACCATTTTTTCACTTTTTTGTTAATATTTCGGAGTCACCTAGTGCAG	12900 fluorescence intensity (a.u.)
CTTCTTCTTCTTCACATTGACCATTTCCTCGCCTCTCAACCGGAGTCACCTAGTGCAG	8860 fluorescence intensity (a.u.)
GAATGACCTTTGACTTTCTTCCTTCGATTAGCTAGGGTGGCGGAGTCACCTAGTGCAG	8950 fluorescence intensity (a.u.)
GTGGTGGTGGTGCAGCTTCTCTCCTCTTCTGAATCTTCTCCGGAGTCACCTAGTGCAG	14600 fluorescence intensity (a.u.)
ATGCTCGATCACATGCTTAATTCTTAGCTTTGTCCTAGTTCGGAGTCACCTAGTGCAG	8230 fluorescence intensity (a.u.)
GCTTTCAAATTTTACGATAGTTTTCAGTTTTGCACTGTATCGGAGTCACCTAGTGCAG	8110 fluorescence intensity (a.u.)
CGACGGGCGGGTGTGGGGATTCGCGGCCTTGAGGGTTCGTCGGAGTCACCTAGTGCAG	9660 fluorescence intensity (a.u.)
AACTTTTGCATCTACTGAATTCTCTTGCGTTACCGTTCCACGGAGTCACCTAGTGCAG	8920 fluorescence intensity (a.u.)
TTTTTTCTATTATTTTTTTCATTTTTCTTATTTCAGTTCCCGGAGTCACCTAGTGCAG	8250 fluorescence intensity (a.u.)
AGATATGCATTATTTTTAAAAACCATTTTCACCATAATGTCGGAGTCACCTAGTGCAG	8630 fluorescence intensity (a.u.)
AGTTTTTGGATTTCCTGTTTCGCATCTGACGGTTCGGCTGCGGAGTCACCTAGTGCAG	8180 fluorescence intensity (a.u.)
GCCTCTCCTTGCTTGCGTGCTCACTGTCGCTGACTGCTCTCGGAGTCACCTAGTGCAG	8240 fluorescence intensity (a.u.)
AACTCTTTATATTTTTTCACATGGTTAGTATATATCGTAGCGGAGTCACCTAGTGCAG	9790 fluorescence intensity (a.u.)
CTGGTTCTTCTTCCTCGCATAGATTCCTCAGAACACAAACCGGAGTCACCTAGTGCAG	8130 fluorescence intensity (a.u.)
AGAGCGAACGGCCGTCTGCCACGTCATTTTCGCCGCCCTCCGGAGTCACCTAGTGCAG	8190 fluorescence intensity (a.u.)
GCCTCGCTGCCTGCCGCTCCACCGATCGCTCGCTCGCTTCCGGAGTCACCTAGTGCAG	10100 fluorescence intensity (a.u.)
ATGCTACCACGCCACATCATTACCCACTACCAAAAATTACCGGAGTCACCTAGTGCAG	8800 fluorescence intensity (a.u.)
GTGGGTTCTTTTTCTCTCTCTTTTCACTCCTTTTCCTACACGGAGTCACCTAGTGCAG	11200 fluorescence intensity (a.u.)

As entered above:
CGCGACTCTCTCCTCCTCGCCCTAGCCTCGTAACACGACGCGGAGTCACCTAGTGCAG – binding signal: 8640 fluorescence intensity (a.u.)
CATCCATCATCATTGAACGGCCCACCAGAAAGCCTAGGCCCGGAGTCACCTAGTGCAG – binding signal: 8400 fluorescence intensity (a.u.)
TTTTTTCTATTATTTTTTTCATTTTTCTTATTTCAGTTCCCGGAGTCACCTAGTGCAG – binding signal: 8250 fluorescence intensity (a.u.)

Remaining list, next part.

Sequence	binding signal
GTTGGAGTTGTTTTTTTTTTTTTTTGACTAAAATCCCTCACGGAGTCACCTAGTGCAG	9620 fluorescence intensity (a.u.)
CTCGGCCTGGTACCCATCCCCGCCCGCGCCATCTTGCGCCCGGAGTCACCTAGTGCAG	8910 fluorescence intensity (a.u.)
TGCCATGGGGAGCTTTCATGTTTTTTTCTCCCTCTCTGAACGGAGTCACCTAGTGCAG	8480 fluorescence intensity (a.u.)
TAAATCCTACGTGGATCATCTACCGCCCATTATTGTACCTCGGAGTCACCTAGTGCAG	8110 fluorescence intensity (a.u.)
ATTCCGTTAGCATTTGTCCTGCCATGGCCTATTCTGCCAGCGGAGTCACCTAGTGCAG	10400 fluorescence intensity (a.u.)
GCTCCAATTTCACGCTGCTCTCGGCCGTCGGATCGCGCGCCGGAGTCACCTAGTGCAG	8850 fluorescence intensity (a.u.)
AGTAACCTACGAAGCCTGACCTGAGACACCGGTTTGACCGCGGAGTCACCTAGTGCAG	9320 fluorescence intensity (a.u.)
CACGGTATAAAAGTAAAACCCGCATGTGCCTTGTAGTTCTCGGAGTCACCTAGTGCAG	8060 fluorescence intensity (a.u.)
TGGTTTTTCATTTTGTGTGCGTGTGCACGTTTGTGTGGGGCGGAGTCACCTAGTGCAG	12700 fluorescence intensity (a.u.)
GTGTGTGAATGACTAACGAGTCCCGCGTACATGTTTTTAACGGAGTCACCTAGTGCAG	9240 fluorescence intensity (a.u.)
ACCGCCTATAAAACCACCACGTCGGACGTCGCCACCTCCGCGGAGTCACCTAGTGCAG	8840 fluorescence intensity (a.u.)
TAGGAGGTGGCGGCCGGTGGTGGCGGATCCGGCGGCGGGGCGGAGTCACCTAGTGCAG	8840 fluorescence intensity (a.u.)
TGCACGTCAGATCATATGCCTGCCCTCTACTAGTAAGTTTCGGAGTCACCTAGTGCAG	10000 fluorescence intensity (a.u.)
CGTCCGTCTCCACCCCTTCGCCGGCCGCCGCCCTATTCCCCGGAGTCACCTAGTGCAG	9130 fluorescence intensity (a.u.)
TGTATGGTTACTCAGGATTTGAACTTCCAGATTGGGTGGGCGGAGTCACCTAGTGCAG	8180 fluorescence intensity (a.u.)
GGTTTAAGGGTGGAAGGGCATATGCGTAACTTCGCATATCCGGAGTCACCTAGTGCAG	8110 fluorescence intensity (a.u.)
GGATGTAAATCTTTTTGGAGTGTGGGTCTTATCTTAATATCGGAGTCACCTAGTGCAG	9240 fluorescence intensity (a.u.)
TGGGCTGGGTTAGGGACTCATCTGCAATTTCGAGGATTCGCGGAGTCACCTAGTGCAG	9060 fluorescence intensity (a.u.)
ACACATCTCACATCGCCATTTGGCCATTTCCTCTCCAATGCGGAGTCACCTAGTGCAG	10100 fluorescence intensity (a.u.)
AGCTATTTTACATGTTATTTTTTCATTGTTATCGTACTAACGGAGTCACCTAGTGCAG	10500 fluorescence intensity (a.u.)
CCATCTTAATGCGCCCGGCAACAATGTAGTATTTTTTTTTCGGAGTCACCTAGTGCAG	9990 fluorescence intensity (a.u.)
CGCGGACAACACTACACTGCATGCCCATTTATTACTCACACGGAGTCACCTAGTGCAG	10800 fluorescence intensity (a.u.)
AGGGTCTATTTTTGTAATTTTTTTGGCTGATAGATTATTTCGGAGTCACCTAGTGCAG	10900 fluorescence intensity (a.u.)
CCCAAATCCTCCAGATCGTCTTCGTCTTCCACCTCGAGCTCGGAGTCACCTAGTGCAG	9720 fluorescence intensity (a.u.)
CATTATTCATCCACCTTTCGTGTACCACACTTCATATATCCGGAGTCACCTAGTGCAG	12000 fluorescence intensity (a.u.)
TCCTTCGTCTGTGGCGGCTGGTCAGTACTTGCTTGCATCTCGGAGTCACCTAGTGCAG	11300 fluorescence intensity (a.u.)
AATTGTTGACCATTGAGACTTGAGAATTGGGTTTATCAGTCGGAGTCACCTAGTGCAG	8650 fluorescence intensity (a.u.)
